PubChem BioAssay AID504467 (National Center for Advancing Translational Sciences (NCATS), 2011)
Screen size: about 330,000 compounds; about 7,700 (2.3%) were called active. The shares of active, inactive and inconclusive entries below differ from those in the screen. Calls follow the shape of the dose curve; as a rule, active = well fitted inhibition curve with a large enough effect; inconclusive = small, poorly fitted or top-dose-only effect, or effect the other way; inactive = flat fitted curve, though single readings scatter. Potencies beside an inconclusive call are fits to weak or partial responses and may not hold up.

Assay: qHTS screen for small molecules that inhibit ELG1-dependent DNA repair in human embryonic kidney (HEK293T) cells expressing luciferase-tagged ELG1; also: nearly all actives have a fitted effect of over 55% in size
Details: HEK293T ELG1-luciferase reporter, luminescence, 16 h, DNA damage induced by 5-fluorouridine; series mostly up to 46.1 µM
Procedure, shortened: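 Cells (2,000 per well) received 5-fluorouridine plus test compound or DMSO and were incubated 16 hr at 37 °C, 5% CO2. Luciferase activity was read by luminescence 30 min after ONE-Glo addition; signal suppression marked inhibition of damage-induced ELG1 function.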
Potency is read from the fitted curve at half-maximal effect.

| SMILES | Potency |
| --- | --- |
| CCc1c(C)c2c(C)nn(-c3ccccc3)c2oc1=O | inactive |
| O=C(COC(=O)c1cccc(Br)c1)NCCNC(=O)COC(=O)c1cccc(Br)c1 | active: 6.51 µM |
| OCc1ccccc1NC(=S)Nc1cccnc1 | inactive |
| S=C(NCCc1ccccc1)N/N=C/c1c(Cl)cccc1Cl | inactive |
| Cc1occc1C(=O)N1CCN(C(c2ccccc2)c2ccccc2)CC1 | inactive |
| O=C(c1ccc2c3n(nc2c1)-c1ccccc1CO3)N1CCCCC1 | inconclusive: 2.06 µM [activator, partial curve] |
| N#CCCn1cc(C=C(C#N)C#N)c(-c2ccc(Cl)cc2)n1 | inactive |
| COc1ccc(C(=O)O/N=C(\N)c2ccccc2)cc1OC | inconclusive: 7.3 µM [activator, partial curve] |
| CCC(Oc1ccccc1OC)C(=O)N1CC(=O)Nc2ccccc21 (stereo not given) | inconclusive: 0.58 µM [inhibitor, single point] |
| CN1CCCN(C(=O)/C=C/c2ccc(Cl)cc2Cl)CC1 | inconclusive: 16.4 µM [activator, single point] |
| COc1ccc(S(=O)(=O)N2CCN(CC(O)COc3ccc(C#N)cc3)CC2)cc1OC (stereo not given) | inconclusive: 25.9 µM [inhibitor, single point] |
| CCN(CC1COc2ccccc2O1)C(=O)c1ccc(Cl)c(S(=O)(=O)N2CC(C)OC(C)C2)c1 (stereo not given) | inactive |
| Cc1ccc(C2=NN(C(=O)CNCCO)C(c3cccs3)C2)cc1 (stereo not given) | inconclusive: 23.1 µM [activator, partial curve] |
| O=C(NCCCn1ccnc1)c1ccc(N2CCCCCC2)c([N+](=O)[O-])c1 | active: 9.2 µM |
| Cc1nc2c([nH]c3ccccc32)c(=O)n1N | inconclusive: 18.3 µM [activator, single point] |
| CCOc1ccc(CC(=O)Nc2c(C(=O)Nc3ccccc3)oc3ccccc23)cc1OCC | inactive |
| O=C(NCC(c1ccco1)N1CCN(c2ccccc2)CC1)c1cccs1 (stereo not given) | inconclusive: 29.1 µM [activator, single point] |
| Cc1oc2cc3c(C(=O)N4CCCCC4)c(C)oc3cc2c1C(=O)N1CCCCC1 | inconclusive: 2.59 µM [activator, partial curve, poor fit] |
| Cc1ccc(-n2c(C)cc(C(=O)COc3c(CO)cc(F)cc3CO)c2C)cc1C | inconclusive: 32.6 µM [inhibitor, partial curve, poor fit] |
| COC(=O)[C@@]1(Cc2ccc(OC)cc2)[C@@H]2[C@@H](CC(=O)[C@H]2CC(=O)C(=O)N(C)C)CN1C(=O)c1ccccc1 | inactive |
| Cc1ccc(/C=N/NC(=O)NC23CC4CC(CC(C4)C2)C3)o1 | inconclusive: 16.4 µM [activator, partial curve] |
| COc1ccc(NC(=O)c2nc[nH]c2C(=O)N[C@@H](CC(C)C)C(=O)OC(C)(C)C)cc1 | inconclusive: 18.3 µM [inhibitor, partial curve, poor fit] |
| CC(c1ccccc1)n1c(Br)nc2c1c(=O)[nH]c(=O)n2C (stereo not given) | inconclusive: 2.24 µM [activator, partial curve, poor fit] |
| CC(C)/C=C/C(=O)N1CCCC(N2CCN(c3ccccc3F)CC2)C1 (stereo not given) | inactive |

| SMILES | Potency |
| --- | --- |
| CCOC(=O)Cc1csc(N/C(=N/S(=O)(=O)c2cc(Br)ccc2OCC)c2ccccc2)n1 | inactive |
| Cc1ccc(S(=O)(=O)N2CCCCC2)cc1C(=O)NCCN1CCOCC1 | inconclusive: 4.11 µM [activator, partial curve, poor fit] |
| Cc1ccc(S(=O)(=O)NCCCCCC(=O)NCCc2ccccc2)cc1 | inconclusive: 0.73 µM [inhibitor, single point] |
| Cc1ccc(NC(=S)NN(C)c2cc(C)nc(C)n2)cc1 | inconclusive: 9.2 µM [inhibitor, partial curve] |
| CCOC(=O)CSc1c(-c2cccs2)[nH]c2ccccc12 | inactive |
| CCC1CCCCN1C(=O)COC(=O)c1cc2ccccc2cc1O (stereo not given) | inconclusive: 29.1 µM [inhibitor, single point] |
| Cc1ccccc1-c1noc(C23CC4CC(CC(C4)C2)C3)n1 | inconclusive: 29.1 µM [activator, partial curve, poor fit] |
| O=C(c1cccnc1Nc1ccccc1F)N1CCOCC1 | inactive |
| Cc1[nH]nc2ncc(C(=O)c3ccccc3O)cc12 | active: 2.51 µM |
| Brc1ccc2[nH]c3nc(SCCN4CCOCC4)nnc3c2c1 | inconclusive: 20.6 µM [activator, single point] |
| CSc1nc(N)c2c(C)c(C)sc2n1 | inconclusive: 14.6 µM [activator, partial curve, poor fit] |
| COc1ccc(CNC(=O)CN2C(=O)CCSc3ccc(S(=O)(=O)N4CCCC4)cc32)cc1 | inactive |
| c1nc(N2CCC3(CC2)OCCO3)c2c3c(sc2n1)CCCC3 | inactive |
| CCCn1c(N)c(C(=O)CSc2nnc(Cc3cccs3)n2C2CC2)c(=O)n(C)c1=O | active: 11.2 µM |
| CCC(C)[C@H](NC(=O)Nc1ccc(Oc2ccccc2)cc1)C(=O)O (stereo not given in full) | inactive |
| CC1(C)NC(=O)N(CCCCOc2cccc(C(F)(F)F)c2)C1=O | inconclusive: 25.1 µM [inhibitor, single point] |
| O=C(COC(=O)/C=C/c1ccccc1)NNC(=O)c1ccccc1F | inconclusive: 29.1 µM [activator, single point] |
| COc1cc(OC)cc(-c2cc3ccc(F)cc3cn2)c1 | inconclusive: 2.59 µM [activator, full curve] |
| CCNC(=S)N1CCN(S(=O)(=O)c2ccc(Cl)s2)CC1 | inconclusive: 23.1 µM [inhibitor, single point] |
| O=c1cc(CN2CCN(S(=O)(=O)c3cccc(Cl)c3)CC2)c2ccc(O)cc2o1 | inconclusive: 23.1 µM [inhibitor, partial curve] |
| CC(C)C[C@H](NC(=O)c1nc[nH]c1C(=O)NCc1ccc(CNC(=O)OC(C)(C)C)cc1)C(=O)OC(C)(C)C | inconclusive: 13 µM [inhibitor, partial curve] |
| CC(=O)c1c(C)[nH]c(C(=O)Nc2cccc(C)n2)c1C | inconclusive: 2.31 µM [activator, full curve] |
| Cc1ccccc1-n1nnnc1SCc1ncc(-c2ccccc2)o1 | inactive |
| CC(NC(=O)Cn1cc2c(n1)CCCCC2)c1ccccc1 (stereo not given) | inconclusive: 29.1 µM [activator, single point] |

| SMILES | Potency |
| --- | --- |
| Cc1ccc2c(c1)C(=O)C(=O)N2Cc1ccc(F)cc1 | inconclusive: 23.1 µM [activator, partial curve, poor fit] |
| COc1ccc(OC)c(NC(=O)CSC2=C(C#N)C(c3ccco3)C3=C(CCCC3=O)N2)c1 (stereo not given) | inconclusive: 20.6 µM [inhibitor, single point] |
| O=C(NC(=S)N1CCN(C(c2ccccc2)c2ccccc2)CC1)c1ccc(S(=O)(=O)N2CCOCC2)cc1 | inconclusive: 4.11 µM [inhibitor, partial curve, poor fit] |
| Cn1c(COc2ccc(Cl)cc2)nc2ccccc2c1=O | inconclusive: 20.6 µM [activator, single point] |
| Cc1ccc(C(=O)N/N=C/c2cc(C)n(-c3ccc(Br)cc3)c2C)cc1[N+](=O)[O-] | inconclusive: 10 µM [inhibitor, single point] |
| NS(=O)(=O)c1ccc(NC(=O)c2ccc3c(c2)OCO3)cc1 | inactive |
| CCOC(=O)C1=NN(c2ccccc2)C(=O)/C1=C\c1ccc(N(C)C)cc1 | inconclusive: 23.1 µM [activator, single point] |
| O=C(Nc1cccc2c1CCCC2)c1ccccc1F | inconclusive: 14.6 µM [activator, partial curve, poor fit] |
| CCCCNC(=O)NC1(C(F)(F)F)Oc2ccccc2O1 | inconclusive: 29.1 µM [inhibitor, partial curve, poor fit] |
| CCc1ccc(Nc2nnc(SCC(=O)N(C)CC(=O)Nc3ccccc3CC)s2)cc1 | active: 18.4 µM |
| O=C(Nc1nc2ccc(Cl)cc2s1)[C@@H]1CCCN1C(=O)c1cccs1 | inconclusive: 16.4 µM [activator, single point] |
| CC(C)(C)c1ccc(C(=O)NCCC(=O)NC2=NCCS2)cc1 | inactive |
| CC(C)=CCN1CCN(Cc2cnc(N3CCCC3)s2)CC1CCO (stereo not given) | inactive |
| Cc1cc(CN(C)C(=O)CCc2nnc(Cc3cccc(C(F)(F)F)c3)o2)on1 | inconclusive: 29.1 µM [activator, single point] |
| Cc1cc(-c2nnc(SCC(=O)N3C(C)CCCC3C)o2)no1 (stereo not given) | inconclusive: 20.6 µM [activator, partial curve, poor fit] |
| O=C(NCC1CCCO1)c1cc(-c2ccccc2F)no1 (stereo not given) | inconclusive: 16.4 µM [activator, partial curve] |
| Cc1ccc2c(c1)N(C(=O)CCC(=O)NCCCN1CCN(C)CC1)CCO2 | inactive |
| Fc1ccc(-[n+]2nc(Nc3ccccc3)sc2-c2c(Cl)cccc2Cl)cc1 | inconclusive: 29.1 µM [inhibitor, single point] |
| CCn1c(CNc2ccc(Cl)cc2)nnc1SCc1ccccc1 | inconclusive: 29.1 µM [inhibitor, single point] |
| Cc1ccc(C)c(C(=O)Cn2ncc(Cl)c(Cl)c2=O)c1 | inconclusive: 29.1 µM [inhibitor, single point] |
| CN(C)S(=O)(=O)c1cc(NC(=O)c2cc(=O)[nH]c3ccccc23)ccc1Cl | inconclusive: 29.1 µM [inhibitor, single point] |
| CN(C)c1ccc(C(=O)/C=C/c2ccc(Br)cc2)cc1 | inconclusive: 23.1 µM [activator, single point] |

Two entries from above, with each value named.
O=C(Nc1nc2ccc(Cl)cc2s1)[C@@H]1CCCN1C(=O)c1cccs1
  Potency: inconclusive: 16.4 µM [activator, single point]
CCn1c(CNc2ccc(Cl)cc2)nnc1SCc1ccccc1
  Potency: inconclusive: 29.1 µM [inhibitor, single point]
